{"sequences": {"note": "Chains of the proteins cited; added tags and fusions are not shown.", "UniProt P18054, whole entry, looked up": "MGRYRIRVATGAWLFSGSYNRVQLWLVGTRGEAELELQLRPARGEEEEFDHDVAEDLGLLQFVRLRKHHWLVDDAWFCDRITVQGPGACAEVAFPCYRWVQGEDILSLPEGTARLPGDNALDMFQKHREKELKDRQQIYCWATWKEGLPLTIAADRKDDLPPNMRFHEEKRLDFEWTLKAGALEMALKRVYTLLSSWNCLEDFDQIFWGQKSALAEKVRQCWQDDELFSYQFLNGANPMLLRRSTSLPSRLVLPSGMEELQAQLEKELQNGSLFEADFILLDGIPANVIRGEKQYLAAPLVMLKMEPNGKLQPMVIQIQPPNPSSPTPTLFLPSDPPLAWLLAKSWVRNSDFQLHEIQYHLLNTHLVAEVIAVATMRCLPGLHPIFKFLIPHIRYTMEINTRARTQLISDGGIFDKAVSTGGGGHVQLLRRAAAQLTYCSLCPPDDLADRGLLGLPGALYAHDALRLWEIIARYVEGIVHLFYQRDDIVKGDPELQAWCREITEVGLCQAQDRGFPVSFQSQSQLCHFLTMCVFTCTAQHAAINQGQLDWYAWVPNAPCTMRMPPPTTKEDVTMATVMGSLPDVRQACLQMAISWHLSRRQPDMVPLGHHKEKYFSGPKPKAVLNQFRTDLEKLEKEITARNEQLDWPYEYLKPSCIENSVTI"}, "source": "PubChem BioAssay AID1671190", "about": "(National Center for Advancing Translational Sciences (NCATS), 2021)", "note": "Among all 580,000 compounds or so, about 6,100 (1.1%) were called active. This list was built around the results that the source calls inconclusive (neither active nor inactive); the mix of calls is not that of the screen. Calls come from the whole dose curve; as a rule, active = well fitted inhibition curve with a large enough effect; inconclusive = small, poorly fitted or top-dose-only effect, or another doubt; inactive = no such curve, though single readings can be large or run the other way. A potency beside an inconclusive call is a rough fit, not a confirmed value. % is set by controls: 0 for no effect and ±100 for the full control effect; potency is the fitted concentration of half-maximal effect.", "data": [{"molecular_target": "Polyunsaturated fatty acid lipoxygenase ALOX12 (Homo sapiens) (UniProt P18054)", "experiment": "Primary qHTS assay for inhibitors of human arachidonate 12S-lipoxygenase (ALOX12): Round 2", "details": "purified 12hLO, xylenol orange hydroperoxide absorbance; activity change, negative = inhibition: at 108 µM (top of the series) unless noted", "method_in_brief": "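Purified human 12hLO at 150 nM in 25 mM Hepes, 0.01% Triton X-100, pH 7.0, preincubated 15 min at room temperature with compound. Reaction started with 40 uM arachidonic acid, 30 min at room temperature. Hydroperoxide measured by Fe-xylenol orange, 573/405 nm absorbance ratio.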", "values": [{"smiles": "CC1CCC(C(C)C)C(P(=O)(c2ccccc2)c2ccccc2)C1", "note": "(configuration not stated)", "activity change, negative = inhibition": "inactive: 0%"}, {"smiles": "Cc1ccc(C2c3c(-c4cc(C)cc(C)c4O)n[nH]c3C(=O)N2CCCO)cc1", "note": "(configuration not stated)", "Potency": "inconclusive: 70.8 µM [inhibitor, single point]"}, {"smiles": "COc1ccc(CN2CCNC(=O)C2CC(=O)N(C)Cc2nccs2)c(OC)c1", "note": "(configuration not stated)", "Potency": "inconclusive: 56.2 µM [inhibitor, partial curve, poor fit]"}, {"smiles": "CC(=O)c1ccc(N2CCN(C(=O)CCCCn3c(=O)[nH]c4ccccc4c3=O)CC2)cc1", "Potency": "inconclusive: 0.199 µM [inhibitor, full curve, poor fit]"}, {"smiles": "COc1cc(OC)c(NC(=O)C(=O)CC(=O)c2ccc(C)cc2C)cc1Cl", "activity change, negative = inhibition": "inactive: 0%"}, {"smiles": "Cn1c(=O)n(C)c2cc(Sc3ccccc3Cl)c(NC(=O)C3CC3)cc21", "activity change, negative = inhibition": "inactive: -1.16%"}, {"smiles": "CC(C)Oc1ccc(S(=O)(=O)N2CCOCC2)cc1NC(=O)C1COc2ccccc2O1", "note": "(configuration not stated)", "activity change, negative = inhibition": "inactive: 69%"}, {"smiles": "Cc1cccc(-n2ncc3c(N4CCC(C)CC4)ncnc32)c1", "activity change, negative = inhibition": "inactive: -23.9%"}, {"smiles": "COc1ccc(-n2c(C)cc(C(=O)COC(=O)Cn3cnc4ccccc43)c2C)cc1", "Potency": "inconclusive: 100 µM [inhibitor, partial curve, poor fit]"}, {"smiles": "CCOc1ccc(C(=O)Nc2cccc(C)n2)cc1", "Potency": "inconclusive: 35.5 µM [inhibitor, partial curve, poor fit]"}, {"smiles": "O=C(O)c1c(CNCc2cccc(F)c2)c2ccccc2n1Cc1ccccc1", "Potency": "inconclusive: 15.8 µM [inhibitor, full curve, poor fit]"}, {"smiles": "Cc1cccc2sc(NNC(=O)c3ccc(S(=O)(=O)N4CCCC(C)C4)cc3)nc12", "note": "(configuration not stated)", "Potency": "inconclusive: 44.7 µM [inhibitor, partial curve, poor fit]"}, {"smiles": "CC(O)CNCCCOc1ccc(C(C)(C)c2ccccc2)cc1", "note": "(configuration not stated)", "Potency": "active: 4.47 µM"}, {"smiles": "Cc1ccc(-c2nn(-c3cccc(F)c3)cc2CN(Cc2nccn2C)C(C)C)o1", "Potency": "inconclusive: 89.1 µM [inhibitor, partial curve, poor fit]"}, {"smiles": "Cc1ccc(S(=O)(=O)N2CCN(C(C)CC(=O)O)CC2)cc1", "note": "(configuration not stated)", "Potency": "inconclusive: 1.41 µM [inhibitor, full curve]"}, {"smiles": "Cc1cc(-c2ccc(C)c(S(=O)(=O)NCC3CCN(Cc4ccc(F)cc4)CC3)c2)on1", "Potency": "inactive"}, {"smiles": "CC1=C(C(=O)OC(C)C)C(c2cccs2)NC(=S)N1", "note": "(configuration not stated)", "Potency": "inconclusive: 50.1 µM [inhibitor, partial curve, poor fit]"}, {"smiles": "CCOCCNc1ncnc2c1CN(C1CCNCC1)C(=O)CN2C", "Potency": "inconclusive: 12.6 µM [inhibitor, full curve, poor fit]"}, {"smiles": "CC(=O)c1cccc(NC(=O)C2CCCN2S(=O)(=O)c2ccccc2C(F)(F)F)c1", "note": "(configuration not stated)", "activity change, negative = inhibition": "inactive: 19.3%"}, {"smiles": "COc1ccc(CN2CC3(Cc4ccccc4NC3=O)C2)cc1", "Potency": "inconclusive: 63.1 µM [inhibitor, partial curve, poor fit]"}, {"smiles": "Cc1oc(/N=C/c2cccc3ccccc23)c(C#N)c1C", "Potency": "inconclusive: 44.7 µM [inhibitor, partial curve, poor fit]"}, {"smiles": "CCOc1ccc(NC(=O)c2ccc(F)c(S(=O)(=O)N(CC)Cc3ccccc3)c2)cc1", "Potency": "inconclusive: 158 µM [inhibitor, partial curve, poor fit]"}, {"smiles": "CCOc1ccc(CC(=O)Nc2sc(Cc3ccccc3)c(C)c2C(N)=O)cc1OCC", "activity change, negative = inhibition": "inactive: 0%"}, {"smiles": "CC(C)C(=O)Nc1cccc(NC(=O)Nc2ccc(Cl)cc2)c1", "activity change, negative = inhibition": "inactive: 38.6%"}, {"smiles": "CC(C)Cn1nc(C(=O)NCc2ccc(C(=O)O)cc2)c2ccccc2c1=O", "activity change, negative = inhibition": "inactive: 22.1%"}, {"smiles": "O=C1NC[C@H](Cc2ccccc2)N(C[C@@H]2CCCN2C[C@H](Cc2ccc(O)cc2)N2C[C@H](Cc3ccc(O)cc3)N(CC3CCCCC3)C(=O)C2=O)C1=O", "Potency": "inconclusive: 56.2 µM [inhibitor, partial curve, poor fit]"}, {"smiles": "Cc1cccc(S(=O)(=O)Nc2nc3ccccc3nc2NCc2ccccc2Cl)c1", "activity change, negative = inhibition": "inactive: -28.7%"}, {"smiles": "O=C(c1ccccc1OCC1CCCN(C2CCC2)C1)N1CCOCC1", "note": "(configuration not stated)", "Potency": "inconclusive: 4.47 µM [inhibitor, full curve, poor fit]"}, {"smiles": "COc1ccccc1NC(=O)CSCc1ccc(Br)cc1", "Potency": "inconclusive: 39.8 µM [inhibitor, single point]"}, {"smiles": "CC(=O)c1ccc(NC(=O)C2(c3ccc(C)cc3)CCCC2)cc1", "Potency": "inconclusive: 39.8 µM [inhibitor, partial curve, poor fit]"}, {"smiles": "CC(=O)N1CCC(N2CCC(N3C(=O)C4(CCCCC4)C3c3ccncc3)CC2)CC1", "note": "(configuration not stated)", "activity change, negative = inhibition": "inactive: 51.2%"}, {"smiles": "Cc1oc(-c2ccc(Cl)cc2)[n+]([O-])c1C", "Potency": "inconclusive: 100 µM [inhibitor, partial curve, poor fit]"}, {"smiles": "C1CCN(CCCNC2C3CC4CC(C3)CC2C4)C1", "note": "(configuration not stated)", "Potency": "inconclusive: 31.6 µM [inhibitor, partial curve, poor fit]"}, {"smiles": "OC[C@H]1O[C@@H](c2nc(-c3ccccc3Br)no2)[C@H](O)[C@@H]1O", "activity change, negative = inhibition": "inactive: 8.7%"}, {"smiles": "CCN1C(=O)C(NC(C)=O)c2cc(OC)ccc21", "note": "(configuration not stated)", "activity change, negative = inhibition": "inactive: 1.1%"}, {"smiles": "COc1ccc(COC(=O)CCNC(=O)c2ccc(Cl)cc2)cc1", "Potency": "inconclusive: 25.1 µM [inhibitor, partial curve, poor fit]"}, {"smiles": "C/C(CC12CC3CC(CC(C3)C1)C2)=N\\NC(=O)C1CC1", "activity change, negative = inhibition": "inactive: 51.6%"}, {"smiles": "CCOc1ccc(CN2CCN(c3cc(C)nc(NC)n3)CC2CCO)cc1", "note": "(configuration not stated)", "activity change, negative = inhibition": "inactive: 19.8%"}, {"smiles": "O=C(CCCSc1ccccc1)Nc1nc(-c2ccco2)c(-c2ccco2)s1", "Potency": "active: 15.8 µM"}, {"smiles": "CCN1CCCC12Cc1ccccc1CN(C(=O)c1ccccc1)C2", "note": "(configuration not stated)", "Potency": "inconclusive: 50.1 µM [inhibitor, partial curve]"}, {"smiles": "CCN(CC)CCCNC(=O)C1CCN(C(=O)c2cc3sccc3n2Cc2ccc(F)cc2)CC1", "Potency": "inconclusive: 0.562 µM [inhibitor, full curve, poor fit]"}, {"smiles": "O=C(NC1CC1)c1cc(=O)c2cc(Cl)ccc2o1", "activity change, negative = inhibition": "inactive: -6.2%"}, {"smiles": "Cc1ccc(S(=O)(=O)N2CCN(C(=O)Cn3nc(C)c([N+](=O)[O-])c3C)CC2)cc1", "Potency": "inconclusive: 126 µM [inhibitor, single point]"}, {"smiles": "CC1=NN(C(N)=S)C(=O)C1N=Nc1cccc(Cl)c1C", "note": "(configuration not stated)", "Potency": "inconclusive: 44.7 µM [inhibitor, partial curve, poor fit]"}, {"smiles": "Cc1nc2nc(SCC(=O)NC3CCC(C)CC3)nn2c(C)c1Cc1ccccc1", "note": "(configuration not stated)", "Potency": "inconclusive: 112 µM [inhibitor, partial curve, poor fit]"}, {"smiles": "O=c1oc(CCO)cc2ccc(C#Cc3ccsc3)cc12", "Potency": "inconclusive: 5.01 µM [inhibitor, partial curve, poor fit]"}, {"smiles": "O=C1NCc2ccccc2CC12CCN(Cc1cccc(C(F)(F)F)c1)C2", "note": "(configuration not stated)", "Potency": "inconclusive: 79.4 µM [inhibitor, partial curve, poor fit]"}, {"smiles": "O=C(CCc1ncc(-c2ccc(F)cc2)o1)NCc1ccccc1Cl", "activity change, negative = inhibition": "inactive: -16.5%"}, {"smiles": "O=C(CCNC(=O)c1ccco1)Nc1nc(-c2ccccc2)cs1", "activity change, negative = inhibition": "inactive: -15.3%"}, {"smiles": "O=C(CSc1nnc(CCc2ccccc2)n1-c1ccc(Cl)cc1)c1ccccc1", "Potency": "inconclusive: 50.1 µM [inhibitor, partial curve, poor fit]"}, {"smiles": "O=C(COc1cc(O)c2c(=O)cc(-c3ccccc3)oc2c1)Nc1ccccc1", "Potency": "inconclusive: 44.7 µM [inhibitor, partial curve, poor fit]"}, {"smiles": "CC(C)Cn1c(=O)c2ccccc2n2c(SCC(=O)N3c4ccccc4CC3C)nnc12", "note": "(configuration not stated)", "Potency": "inconclusive: 126 µM [inhibitor, partial curve, poor fit]"}, {"smiles": "CC(C)(C)c1cc(=O)n(-c2ccccc2)[nH]1", "activity change, negative = inhibition": "inactive: -29.4%"}, {"smiles": "Cc1ccc(/C=C2/SC(=Nc3ccc(F)cc3)NC2=O)s1", "Potency": "inconclusive: 50.1 µM [inhibitor, partial curve, poor fit]"}, {"smiles": "Cc1cc(C)n(CCC(=O)NCC2Cc3cc(Cl)cc(-c4cnccn4)c3O2)n1", "note": "(configuration not stated)", "activity change, negative = inhibition": "inactive: 3.79%"}, {"smiles": "COc1ccccc1N1CCN(CC(=O)Nc2nc(C)c(C(=O)N(C)C)s2)CC1", "Potency": "inconclusive: 44.7 µM [inhibitor, single point]"}, {"smiles": "Cc1cc(C)cc(-n2ccn(CC(=O)Nc3cc(C)ccc3C)c(=O)c2=O)c1", "Potency": "inconclusive: 178 µM [inhibitor, partial curve, poor fit]"}, {"smiles": "CCN1CCC(CCNC(=O)CCC[C@H]2NC[C@@H]3CC2CN(Cc2ccccc2)C3)CC1", "Potency": "inconclusive: 5.62 µM [inhibitor, full curve, poor fit]"}, {"smiles": "Cc1ccc(C)c(NC(=O)CCC(=O)N/N=C/c2ccc[nH]2)c1", "activity change, negative = inhibition": "inactive: 6.24%"}, {"smiles": "CC1=NN2C(=N)/C(=C\\c3ccc(SCc4ccccc4)o3)C(=O)N=C2S1", "Potency": "active: 39.8 µM"}, {"smiles": "CCC(=O)N1CCC1(C)C(=O)NS(=O)(=O)c1cccc(C#N)c1", "note": "(configuration not stated)", "Potency": "inconclusive: 17.8 µM [inhibitor, full curve, poor fit]"}, {"smiles": "CC1N(C)c2cccc3cccc(c23)N1C", "Potency": "inconclusive: 44.7 µM [inhibitor, partial curve, poor fit]"}, {"smiles": "Cc1ccc(/C=C/C(=O)NC(=S)Nc2ccc(S(=O)(=O)Nc3cc(C)on3)cc2)cc1", "Potency": "inconclusive: 0.501 µM [inhibitor, full curve, poor fit]"}, {"smiles": "CCOc1ccc(N2CC(c3nc4ccccc4n3Cc3ccccc3F)CC2=O)cc1", "note": "(configuration not stated)", "Potency": "inconclusive: 126 µM [inhibitor, partial curve, poor fit]"}, {"smiles": "Cc1ccc(NC(=O)Cn2nc3n(c2=O)CCCCC3)cc1F", "activity change, negative = inhibition": "inactive: 54.9%"}, {"smiles": "Cc1ccc2oc(=O)c(/C=C(\\O)c3ccccc3)nc2c1", "Potency": "inconclusive: 0.251 µM [inhibitor, full curve, poor fit]"}, {"smiles": "O=C(O)c1nc(=O)[nH]c(=O)[nH]1", "Potency": "inconclusive: 0.298 µM [inhibitor, full curve]"}]}]}
